## Results from one PubChem assay

From PubChem BioAssay record AID1259355 (NCATS, 2018).

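Chordoma line UCH-1 cell survival under a drug combination, measured by ATP-linked light output at the 48 h point. Each compound was titrated across a series from about 0.000059 to 46 µM. The number is the AC50 from the fitted dose-response curve, and a lower value marks a more potent compound. Calls come from an activity score set by curve class and fitted AC50: 40 to 100 counts as active, 1 to 39 inconclusive, and 0 inactive.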

Values are in µM. All entries here are filed as inconclusive. These entries are mostly ones the record files as inconclusive; other results of the assay are not listed here. Potencies fitted to partial, single-point or poorly fitting curves are rough. Activity scores are not listed here.

For Cc1nnc2n1-c1ccc(Cl)cc1C(c1ccccc1)=NC2 the result was Potency 35.48 µM (cytotoxic, single point). Result for CNCCCC1c2ccccc2C=Cc2ccccc21 [with auranofin plus four topoisomerase inhibitors] was Potency 0.3162 µM (cytotoxic, full curve, poor fit). COc1cc(C(=O)OCCCN2CCCN(CCCOC(=O)c3cc(OC)c(OC)c(OC)c3)CC2)cc(OC)c1OC [with auranofin plus four topoisomerase inhibitors] gave Potency 15.85 µM (cytotoxic, partial curve, poor fit). For CC(CN1c2ccccc2Sc2ccccc21)N(C)C (stereo unspecified) [with auranofin plus four topoisomerase inhibitors] the result was Potency 39.81 µM (cytotoxic, partial curve, poor fit). CN(C)CCCN1c2ccccc2Sc2ccc(Cl)cc21 [with auranofin plus four topoisomerase inhibitors] read Potency 35.48 µM (cytotoxic, single point). Result for CNCCC(Oc1ccc(C(F)(F)F)cc1)c1ccccc1 (stereo unspecified) [with auranofin plus four topoisomerase inhibitors] was Potency 28.18 µM (cytotoxic, single point). Result for CC/C(=C(\c1ccccc1)c1ccc(OCCN(C)C)cc1)c1ccccc1 [with auranofin plus four topoisomerase inhibitors] was Potency 35.48 µM (cytotoxic, partial curve, poor fit).

Clc1ccc(CO/N=C(\Cn2ccnc2)c2ccc(Cl)cc2Cl)c(Cl)c1 gave Potency 0.0355 µM (cytotoxic, full curve, poor fit). With [Cl-].[Cl-].[Hg+2] the assay gave Potency 31.62 µM (cytotoxic, partial curve, poor fit). For CCCCC(CC)CN=C(N)NC(N)=NCCCCCCN=C(N)NC(N)=NCC(CC)CCCC (stereo unspecified) [with auranofin plus four topoisomerase inhibitors] the result was Potency 31.62 µM (cytotoxic, single point). For CC12CC3CC(C)(C1)CC(N)(C3)C2 [with auranofin plus four topoisomerase inhibitors] the result was Potency 35.48 µM (cytotoxic, partial curve, poor fit). CCCCCCCCCCCC[N+](C)(C)CCOc1ccccc1 gave Potency 28.18 µM (cytotoxic, partial curve, poor fit). For O=C1[C@H]2CCCC[C@H]2C(=O)N1CCCCN1CCN(c2nsc3ccccc23)CC1 [with auranofin plus four topoisomerase inhibitors] the result was Potency 35.48 µM (cytotoxic, single point). For CCC1=C[C@@H]2CN(C1)Cc1c([nH]c3ccccc13)[C@@](C(=O)OC)(c1cc3c(cc1OC)N(C)[C@@H]1[C@@](O)(C(=O)OC)[C@H](OC(C)=O)[C@]4(CC)C=CCN5CC[C@]31[C@@H]54)C2 [with auranofin plus four topoisomerase inhibitors] the result was Potency 12.59 µM (cytotoxic, single point).

C[C@@H]1C[C@H]2[C@@H]3CCC4=CC(=O)C=C[C@]4(C)[C@@]3(F)[C@@H](O)C[C@]2(C)[C@H]1C(=O)CO [with auranofin plus four topoisomerase inhibitors] read Potency 0.0079 µM (cytotoxic, full curve, poor fit).

Some entries from above, unchanged:

{"compound": "CNCCCC1c2ccccc2C=Cc2ccccc21", "tested on / at": "with auranofin plus four topoisomerase inhibitors", "Potency (µM)": "0.3162", "curve": "cytotoxic, full curve, poor fit"}
{"compound": "CN(C)CCCN1c2ccccc2Sc2ccc(Cl)cc21", "tested on / at": "with auranofin plus four topoisomerase inhibitors", "Potency (µM)": "35.48", "curve": "cytotoxic, single point"}